Data as given in PubChem BioAssay AID602196 (INSERM, 2012).
In all, the deposit lists about 23,000 reagents; shown is an unselected part. In the full data, 455 (2%) got an active call. 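Active includes both protection and sensitisation; some change values fall well beyond the stated -50 to +50 range.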 Entries without a mark were called inactive. Not all columns of the deposit are shown. Reagent sequences are not shown. Not given: the amount of reagent.

Purpose: 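Modifiers of cisplatin sensitivity in A549 cells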
Cells: human A549 lung cancer cells
Reagents: siRNA pair against human genes
Time to read-out: 48 h transfection before cisplatin; time from cisplatin to read-out not stated
Challenge: cisplatin at a dose killing half of control-siRNA cells; exact dose and duration not given
Measurement: 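Shift in cisplatin death relative to control siRNA, from -50 (all cells die) to +50 (no cells die); siRNAs harmful on their own scored 0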
Direction: two-siRNA summed score (-2 to +2): higher = both siRNAs protect from cisplatin killing; -2 means both sensitise
Hit rule: 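siRNAs harmful alone (LDH or WST-1) get 0; others get +1 for less and -1 for more cisplatin killing; genes are active when the two siRNAs give the same sign, summing to ±2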
Meaning of the calls: active = both siRNAs shift cisplatin killing the same way; inactive = no consistent shift, or siRNA harmful alone

no.	gene knocked down	two-siRNA summed score (-2 to +2)
1	MACROH2A2 (macroH2A.2 histone)	0
2	LOC401053	0
3	PHC1 (polyhomeotic homolog 1)	-1
4	ARK2N (arkadia (RNF111) N-terminal like PKA signaling regulator 2N)	1
5	LOC440717	0
6	SRFBP1 (serum response factor binding protein 1)	0
7	NTM-AS1 (NTM antisense RNA 1)	0
8	ARHGAP6 (Rho GTPase activating protein 6)	0
9	MRPS23 (mitochondrial ribosomal protein S23)	0
10	GTPBP10 (GTP binding protein 10)	0
11	WDR31 (WD repeat domain 31)	0
12	SMAP2 (small ArfGAP2)	0
13	SLC25A15	0
14	DKFZP434F122	1
15	NAT16 (N-acetyltransferase 16 (putative))	0
16	MORN3 (MORN repeat containing 3)	0
17	NHERF2 (NHERF family PDZ scaffold protein 2)	1
18	AFG3L1P (AFG3 like matrix AAA peptidase subunit 1, pseudogene)	0
19	MOAP1 (modulator of apoptosis 1)	0
20	PRDM5 (PR/SET domain 5)	1
21	TNFRSF10B (TNF receptor superfamily member 10b)	1
22	FLNC (filamin C)	-1
23	LOC391509	0
24	SLC22A16	0
25	RPRD2 (regulation of nuclear pre-mRNA domain containing 2)	1
26	YIPF1 (Yip1 domain family member 1)	0
27	DESI1 (desumoylating isopeptidase 1)	1
28	CCN1 (cellular communication network factor 1)	0
29	PTEN (phosphatase and tensin homolog)	0
30	CREG1 (cellular repressor of E1A stimulated genes 1)	0
31	LOC401113	0
32	DLG1 (discs large MAGUK scaffold protein 1)	0
33	CDC20B (cell division cycle 20B)	0
34	SLC68A1	-1
35	CNTNAP4 (contactin associated protein family member 4)	0
36	ENY2 (ENY2 transcription and export complex 2 subunit)	-1
37	ERVFRD-1 (endogenous retrovirus group FRD member 1, envelope)	0
38	ERCC5 (ERCC excision repair 5, endonuclease)	0
39	SNRNP48 (small nuclear ribonucleoprotein U11/U12 subunit 48)	0
40	SESN2 (sestrin 2)	0
41	CD59 (CD59 molecule (CD59 blood group))	0
42	REX1BD (required for excision 1-B domain containing)	0
43	NDUFB10 (NADH:ubiquinone oxidoreductase subunit B10)	0
44	ZNG1C (Zn regulated GTPase metalloprotein activator 1C)	0
45	KRTAP13-3 (keratin associated protein 13-3)	0
46	CMTM7 (CKLF like MARVEL transmembrane domain containing 7)	0
47	LOC400590 (retired record)	0
48	LOC440279	1
49	PLXNA4 (plexin A4)	0
50	GLRA3 (glycine receptor alpha 3)	0
51	PCBD1 (pterin-4 alpha-carbinolamine dehydratase 1)	0
52	ZSCAN32 (zinc finger and SCAN domain containing 32)	0
53	LOC390777	1
54	LOC442552	1
55	APPL1	0
56	IKBKB (inhibitor of nuclear factor kappa B kinase subunit beta)	0
57	RLN1 (relaxin 1)	1
58	THY1 (Thy-1 cell surface antigen)	0
59	PROC (protein C, inactivator of coagulation factors Va and VIIIa)	0
60	NAXD (NAD(P)HX dehydratase)	0
61	DNAJC5B (DnaJ heat shock protein family (Hsp40) member C5 beta)	1
62	OLFML2A (olfactomedin like 2A)	-1
63	LOC401449	0
64	LINC02396 (long independently transcribed non-coding RNA 2396)	1
65	AMER2 (APC membrane recruitment protein 2)	1
66	ZNF48 (zinc finger protein 48)	0
67	LINC02579 (long independently transcribed non-coding RNA 2579)	0
68	GAL (galanin and GMAP prepropeptide)	0
69	GOLGA2 (golgin A2)	-2 (active)
70	HK1 (hexokinase 1)	-1
71	CASZ1 (castor zinc finger 1)	0
72	PFDN4 (prefoldin subunit 4)	0
73	ITGA9 (integrin subunit alpha 9)	0
